This assay deals with YKL018C-A/MCO12 (S. cerevisiae) (UniProt Q3E7A7). The assay can be described thus: two-hybrid.

Protein sequences, listed by entry. Tags and fused reporters are not part of them. Lines headed by an entry give the natural chain unless they say otherwise; changes in a name come on top.
UniProt Q3E7A7: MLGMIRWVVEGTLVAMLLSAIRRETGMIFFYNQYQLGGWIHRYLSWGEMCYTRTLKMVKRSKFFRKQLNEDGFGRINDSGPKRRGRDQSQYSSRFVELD

No constants are given. Whether binding was seen depends on the method and setting. A result given as binding can be weak or reduced; the word gives no strength.

B1: Pex35 (protein, UniProt P53293 1-376)
chain: MKHNRPNGTGKAVSGFKQIIRRLLLLLNKKRRKQLVIILKRITQVYGINLVFYVKKWKLKKLQGENIQINDIMPWLRESTILVLLNILYPTLMKFPFLKNHYIHWSSIVGISLMLTKGEVPSWIIAHFLVEAIASKLKIAKLTQWLKKKNFSQGTLIKFQQILVCLAIIVLFAKLDRSSLPFRVLFDHRPFLIDFFTINAIFTVLAVYHRTLKFFFTSGTKSNKNVGGHEVRNFSQYLGVKNHNDWPISSSNLKHVMDRLNEIHEVTIDDNYANINEKIINSYFTKGFFPSLKWTILRQCIEYLFVTKRRRLMGNKLRCIVMLLTFTFVDPTSKMKISPFFAKFFAKSLVNVYLKKYWHCNFGKYILFFLFQLSIM
On to B1, for which the binding entry was “binds”.

The values are drawn from article doi:10.1101/2021.03.16.435663.
